These are yes or no findings as the source states them, for the method shown. Binding seen in cells or lysates may run through a third protein. Some results given as binding are weak or reduced against the parent protein; the word gives no strength.
Target: T1, cyclin I-like protein (CCNI2) (human (in human pancreatic cancer cells)) (UniProt Q6ZMN8)
T1 sequence: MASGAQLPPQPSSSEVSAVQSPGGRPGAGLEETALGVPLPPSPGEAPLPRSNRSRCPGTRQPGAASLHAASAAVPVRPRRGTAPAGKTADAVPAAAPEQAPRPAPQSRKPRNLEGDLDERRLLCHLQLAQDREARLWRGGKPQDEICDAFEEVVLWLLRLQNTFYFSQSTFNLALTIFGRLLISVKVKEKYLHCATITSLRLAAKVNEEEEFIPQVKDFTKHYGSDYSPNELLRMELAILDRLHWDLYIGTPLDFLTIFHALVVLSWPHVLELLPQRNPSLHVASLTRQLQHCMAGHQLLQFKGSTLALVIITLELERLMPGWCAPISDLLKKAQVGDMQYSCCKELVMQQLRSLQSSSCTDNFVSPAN
Assay: co-IP; Co-IP in pancreatic cancer cells, detected by immunoblotting; precipitating antibody, cell line and buffer not told

Chains of the proteins cited; added tags and fusions are not shown.
UniProt Q00534: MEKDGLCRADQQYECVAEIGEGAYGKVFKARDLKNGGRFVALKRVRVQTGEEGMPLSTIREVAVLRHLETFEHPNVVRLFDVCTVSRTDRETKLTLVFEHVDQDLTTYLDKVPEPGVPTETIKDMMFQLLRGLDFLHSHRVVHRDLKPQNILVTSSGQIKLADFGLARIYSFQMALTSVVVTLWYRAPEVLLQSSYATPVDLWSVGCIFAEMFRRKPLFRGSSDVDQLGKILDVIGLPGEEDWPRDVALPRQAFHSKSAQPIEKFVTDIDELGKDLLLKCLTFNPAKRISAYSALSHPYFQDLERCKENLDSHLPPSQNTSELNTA

binding | Substance
binds | cyclin-dependent kinase 6 (CDK6) (from UniProt Q00534 1-326)
binds | cyclin-dependent kinase 5 (CDK5) (from UniProt Q00535 1-292)
